24 molecules from PubChem BioAssay AID248 (DTP/NCI, 2004) can be followed below.

The list is a part of this screen's results and no random one: it gathers tests that were run many times, whatever their T/C, doses with no T/C, and many T/C values between a quarter and a half above the control. Further doses and runs are listed elsewhere. T/C gives the treated animals as a percentage of the vehicle group. Some doses have a count of surviving animals in place of a T/C: the source files T/C as zero there, which appears to mark a toxic dose or a test without result, not a measured value. Some doses without a T/C left all or most animals alive at the check, yet need not have been tolerated: the source hardly ever lists a survival T/C far under the control, and the zero likely stands for such cases as well. Survivors were counted at the toxicity check, usually on the fifth day, unless a day is given; later deaths do not show. Schedule codes are those of the source, read here as Q, the interval in days (D) or hours (H), X, the number of doses. Some schedules carry Z or #; the key to these is not given. Some structures stand for samples that the source files as different forms (salt, stereo form or complex); doses refer to the form tested. Where survival is the endpoint, the PubChem record calls one and a half times the control and up active, and a quarter to a half above the control has no call in these data; cut-offs in other NCI protocols can differ. Some T/C values carry the count of animals alive at the toxicity check (mostly the fifth day); where none is given, no animal had died by that day.

The assay has as its system L1210 leukemia ip in BDF1 mice, survival T/C. As to the kind of experiment: NCI In Vivo Anticancer Drug Screen. Data for tumor model L1210 Leukemia (intraperitoneal) in B6D2F1 (BDF1) mice. The note with it: T/C endpoint: mean survival time, higher T/C = longer survival.
[1] abbreviates: dose: 100.0 mg/kg/injection, schedule: Q01DX009 (ip), vehicle: saline.
[2] abbreviates: dose: 100.0 mg/kg/injection, schedule: Q04DX003 (ip), vehicle: saline.
Where [3] appears, read: dose: 200.0 mg/kg/injection, schedule: Q04DX002 (ip), vehicle: saline.
[4] abbreviates: dose: 200.0 mg/kg/injection, schedule: Q04DX003 (ip), vehicle: saline.
Where [5] appears, read: dose: 400.0 mg/kg/injection, schedule: Q04DX002 (ip), vehicle: saline.
The mark [6] stands for this setting: dose: 400.0 mg/kg/injection, schedule: Q04DX003 (ip), vehicle: saline.
Where [7] appears, read: dose: 200.0 mg/kg/injection, schedule: Q01DX009 (ip), vehicle: saline.
[8] abbreviates: dose: 400.0 mg/kg/injection, schedule: Q01DX001 (ip), vehicle: saline.
Setting [9] is: dose: 80.0 mg/kg/injection, schedule: Q01DX001 (ip), vehicle: saline.
[10] abbreviates: dose: 100.0 mg/kg/injection, schedule: Q01DX001 (ip), vehicle: saline.
Where [11] appears, read: dose: 200.0 mg/kg/injection, schedule: Q01DX001 (ip), vehicle: saline.
The mark [12] stands for this setting: dose: 100.0 mg/kg/injection, schedule: Q01DX009 (ip), vehicle: Klucel (hydroxypropylcellulose) (HPC).
The mark [13] stands for this setting: dose: 400.0 mg/kg/injection, schedule: Q01DX009 (ip), vehicle: Klucel (hydroxypropylcellulose) (HPC).
Where [14] appears, read: dose: 400.0 mg/kg/injection, schedule: Q01DX009 (ip), vehicle: saline with Tween-80.

On to `COc1ccccc1C(=O)NN`, for which the survivor count is, setting by setting: under setting [1], 1 of 6; (dose: 100.0 mg/kg/injection, schedule: Q04DX002 (ip), vehicle: saline) 2 of 3; under setting [2], 0 of 6; under setting [3], 0 of 3; under setting [4], 0 of 6; under setting [5], 0 of 3. Besides, the survivor count under setting [6] is 0 of 6.

`CCOC(=O)c1nc(NC)sc1N`: the survivor count reads like this: under setting [1], 3 of 6; under setting [7], 4 of 6; under setting [6], 0 of 6.

Regarding `OC1C2COc3nc4ccccc4n3C(O2)C1O` (centres undefined), the survivor count under setting [8] is 6 of 6.

For the molecule `CNc1nc(Cl)ncc1C`, the survivor count runs as follows: (dose: 1.0 mg/kg/injection, schedule: Q01DX Z (ip), vehicle: methylcellulose (MC)) 1 of 6; (dose: 3.0 mg/kg/injection, schedule: Q01DX Z (ip), vehicle: methylcellulose (MC)) 0 of 6; (dose: 6.0 mg/kg/injection, schedule: Q01DX Z (ip), vehicle: methylcellulose (MC)) 5 of 6; (dose: 12.0 mg/kg/injection, schedule: Q01DX Z (ip), vehicle: methylcellulose (MC)) 1 of 6; (dose: 25.0 mg/kg/injection, schedule: Q01DX Z (ip), vehicle: methylcellulose (MC)) 0 of 6; (dose: 50.0 mg/kg/injection, schedule: Q01DX Z (ip), vehicle: methylcellulose (MC)) 0 of 6. Further, the survivor count is given as 0 of 6 (dose: 100.0 mg/kg/injection, schedule: Q01DX Z (ip), vehicle: methylcellulose (MC)) and 0 of 6 (dose: 200.0 mg/kg/injection, schedule: Q01DX Z (ip), vehicle: methylcellulose (MC)).

Turning to `CS(=O)(=O)O.[Cu+2]`, the survivor count was 2 of 4 (dose: 20.0 mg/kg/injection, schedule: Q01DX001 (ip), vehicle: saline); 0 of 4 (dose: 40.0 mg/kg/injection, schedule: Q01DX001 (ip), vehicle: saline); 1 of 4 (dose: 50.0 mg/kg/injection, schedule: Q01DX001 (ip), vehicle: saline); 0 of 4 under setting [9]; 0 of 4 under setting [10]; 0 of 4 under setting [11]. For the same molecule, the survivor count under setting [8] is 0 of 4.

Take `CCCCCCCCCCOC(=O)C[n+]1cccc(C(=O)Nc2ccc(Cl)cc2)c1`: the survivor count reads like this: (dose: 100.0 mg/kg/injection, schedule: Q04DX003 (ip), vehicle: other) 1 of 6; (dose: 200.0 mg/kg/injection, schedule: Q04DX003 (ip), vehicle: other) 0 of 6; (dose: 400.0 mg/kg/injection, schedule: Q04DX003 (ip), vehicle: other) 0 of 6.

As to `COc1cc([N+](=O)[O-])ccc1NC(=O)Oc1ccccc1C(N)=O`, the survivor count is on record as 6 of 6 under setting [12]; 5 of 6 (dose: 200.0 mg/kg/injection, schedule: Q01DX009 (ip), vehicle: Klucel (hydroxypropylcellulose) (HPC)); 0 of 6 under setting [13].

Turning to `CCN(CC)CCCOC(=O)c1ccc(N)cc1`, the survivor count under setting [2] is 4 of 6, the survivor count under setting [4] was 0 of 6 and the survivor count under setting [6] was 0 of 6.

As to `Cc1cccc(SC(=O)SC(C)CN)c1` (centres undefined), the survivor count by setting is: under setting [3], 0 of 3; under setting [5], 0 of 3.

Regarding `CCOC(=O)C1=C(C)NC(=O)NN1C(=O)OCC`, the survivor count is 1 of 3 under setting [1] and 0 of 3 under setting [7].

On to `O=C(O)CCCc1ccc([N+](=O)[O-])cc1Cl`, for which the survivor count under setting [14] was 2 of 6.

As to `O=NN(CCCl)C(=O)NC12CC3CC(CC(C3)C1)C2`, the T/C was 139 % of control (dose: 16.0 mg/kg/injection, schedule: Q01DX001 (ip), vehicle: carboxymethylcellulose (CMC)); 148 % of control (dose: 31.0 mg/kg/injection, schedule: Q01DX001 (ip), vehicle: carboxymethylcellulose (CMC)); 133 % of control [5 of 6 alive] (dose: 250.0 mg/kg/injection, schedule: Q01DX001 (ip), vehicle: carboxymethylcellulose (CMC)). Besides, the survivor count is, setting by setting: (dose: 375.0 mg/kg/injection, schedule: Q01DX001 (ip), vehicle: carboxymethylcellulose (CMC)) 6 of 6; (dose: 500.0 mg/kg/injection, schedule: Q01DX001 (ip), vehicle: carboxymethylcellulose (CMC)) 4 of 6.

Consider `CN(Cc1cnc(N)nc1N)c1ccc(C(=O)O)cc1`, for which the survivor count (dose: 200.0 mg/kg/injection, schedule: Q01DX001 (ip), vehicle: carboxymethylcellulose (CMC)) was 3 of 3.

For the molecule `CC12CCC3c4ccc([O-])c([N+]#N)c4CCC3C1CCC2=O` (centres undefined), the survivor count under setting [12] is 1 of 3.

Take `C1CCC2=NCCCN2CC1`: the survivor count is recorded as 2 of 6 under setting [9], 3 of 6 under setting [10], 1 of 6 under setting [11] and 0 of 6 under setting [8].

As for `OCC1C2CCC(C2)C1c1ccccc1` (centres undefined), the survivor count reads like this: (dose: 18.75 mg/kg/injection, schedule: Q01DX001 (ip), vehicle: saline) 0 of 6; (dose: 37.5 mg/kg/injection, schedule: Q01DX001 (ip), vehicle: saline) 1 of 6; (dose: 75.0 mg/kg/injection, schedule: Q01DX001 (ip), vehicle: saline) 0 of 6; (dose: 150.0 mg/kg/injection, schedule: Q01DX001 (ip), vehicle: saline) 0 of 6; (dose: 300.0 mg/kg/injection, schedule: Q01DX001 (ip), vehicle: saline) 0 of 6.

Consider `CCCCCN(CCCCC)CC(O)C1c2ccccc2Cc2ccccc21` (centres undefined), for which the survivor count is 2 of 4 under setting [9], 0 of 4 under setting [11] and 0 of 4 under setting [8].

For the molecule `Nc1ccc(CCCCc2c(N)nc(N)nc2N)cc1`, the survivor count (dose: 400.0 mg/kg/injection, schedule: Q04DX003 (ip), vehicle: Klucel (hydroxypropylcellulose) (HPC)) is 0 of 6.

On to `CCOC(=O)COc1cc(Cl)c(Cl)cc1Cl`, for which the survivor count runs as follows: (dose: 150.0 mg/kg/injection, schedule: Q01DX009 (ip), vehicle: gum acacia) 3 of 3; (dose: 300.0 mg/kg/injection, schedule: Q01DX009 (ip), vehicle: gum acacia) 0 of 3.

On to `Nc1cccc(CCCCOc2ccccc2)c1`, for which, under setting [14], the survivor count is 1 of 6.

For the molecule `ONC(=NCc1ccccc1)c1ccccc1`, the survivor count (dose: 400.0 mg/kg/injection, schedule: Q01DX001 (ip), vehicle: carboxymethylcellulose (CMC)) is given as 1 of 4.

With `CNC(=S)N(N)c1ccccc1`, under setting [13], the survivor count was 1 of 6.

As to `NC(CC(=O)CCl)C(=O)O` (centres undefined), the T/C is 136 % of control (dose: 14.7 mg/kg/injection, schedule: Q04DX003 (ip), vehicle: saline); 125 % of control (dose: 18.8 mg/kg/injection, schedule: Q01DX009 (ip), vehicle: carboxymethylcellulose (CMC)); 136 % of control (dose: 33.0 mg/kg/injection, schedule: Q04DX003 (ip), vehicle: saline); 132 % of control (dose: 37.5 mg/kg/injection, schedule: Q01DX009 (ip), vehicle: carboxymethylcellulose (CMC)); 138 % of control (dose: 37.5 mg/kg/injection, schedule: Q01DX009 (ip), vehicle: saline). Besides, the survivor count is, setting by setting: (dose: 50.0 mg/kg/injection, schedule: Q04DX003 (ip), vehicle: saline) 6 of 6; (dose: 75.0 mg/kg/injection, schedule: Q01DX009 (ip), vehicle: saline) 0 of 6; (dose: 300.0 mg/kg/injection, schedule: Q01DX001 (ip), vehicle: carboxymethylcellulose (CMC)) 0 of 6.

For `NC(=O)c1ccc[n+](CC(=O)NCc2ccccc2)c1`, the survivor count under setting [6] is on record as 1 of 6.
